Results from patent EP1214933A1, “METHOD FOR MODULATING THE METABOLISM OF NITROGEN OXIDES, COMPOSITIONS THEREFOR (AND VARIANTS) AND METHOD FOR ACTING ON A PATIENT'S ORGANISM NECESSITATING THE METABOLISM OF NITROGEN OXIDES TO BE CORRECTED” (Institut Molekulyarnoi Genetiki Rossiiskoi Akademii Nauk ( …, priority 1999, dated 2001).
At least one peptide structure holds a part that was inferred or is arguable (an end, a ring closure or a residue). Ends that are not written are not given here. Peptide text beside a SMILES is read from it.

Assay: Efficacy of renitrosation catalysts by N1-nitrozotriptophan denitrosation kinetics
Format: biochemical
Settings: 32°C, normalized for the buffer molarity

Row | Compound | W^0/W^0 buffer (reference buffer MOPS, pH 6) | other results
1 | CSCC[C@H](NC(=O)[C@H](C)N)C(=O)O [Example 11, Ala-Met] (H-Ala-Met-OH) | 18 | 
2 | NCC(=O)N[C@@H](CC(=O)O)C(=O)O [Example 14, Cly-Asp] (H-Gly-Asp-OH) | 15 | 
3 | NCC(=O)N[C@@H](Cc1c[nH]cn1)C(=O)O [Example 15, Gly-His] (H-Gly-His-OH) |  | W^0/W^0 buffer (reference buffer Hepes, pH 6.1): 16
4 | MEHFPGP [Example 16, Met-Glu-His-Phe-Pro-Gly-Pro] |  | W^0/W^0 buffer (reference buffer Phosphate, pH 5.9): 310
